# In PubChem BioAssay AID1347076 (National Center for Advancing Translational Sciences (NCATS), 2019):
# The campaign covered roughly 400,000 compounds. About 13,000 (3.2%) were called active. The shares of active, inactive and inconclusive entries below differ from those in the screen. Calls follow the shape of the dose curve; as a rule, active = well fitted cell-killing curve with a large enough effect; inconclusive = small, poorly fitted or top-dose-only effect, or effect the other way; inactive = flat fitted curve, though single readings scatter. Potencies beside an inconclusive call are fits to weak or partial responses and may not hold up.
# Assay: qHTS assay for MDR1-selective chemotherapeutics: Primary screen using the drug-selected MDR subline cells KB-V1; also: nearly all actives have a fitted effect of over 60% in size
# Conditions: KB-V1 MDR cells viability, CellTiter-Glo, 72 h; activity change, negative = cytotoxicity: at 46.1 µM (top of the series)
# How it was run: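 KB-V1 cells (P-gp-expressing MDR subline of KB-3-1) in phenol-red-free DMEM with 10% FBS were exposed to library compounds over a concentration series for 72 h at 37 degrees C. Viability read by CellTiter-Glo luminescence; concentration-effect curves fitted after normalization.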
# % is scaled to controls: 0 for no effect and ±100 for the full control effect; potency is read from the fitted curve at half-maximal effect.
SMILES,Potency,"activity change, negative = cytotoxicity"
Cc1ccc(NC(=O)Cn2nnc(C(=O)NCc3ccc4c(c3)OCO4)c2N)cc1,"inconclusive: 14.6 µM [cytotoxic, partial curve]",–
Cc1ccc(S(=O)(=O)N2CCC[C@H]2C(=O)NCc2ccccc2Cl)cc1,"inconclusive: 5.8 µM [cytotoxic, partial curve, poor fit]",–
Cc1nonc1OCCNc1ccc([N+](=O)[O-])cc1,"inconclusive: 18.4 µM [cytotoxic, single point]",–
COc1ccc(/C=N/n2cc(-c3ccccc3)nc2N)cc1,active: 7.31 µM,–
COc1cccc(-c2csc(N3CCN(C(=S)Nc4ccc(Cl)cc4)CC3)n2)c1,active: 23.1 µM,–
CCN1CCN(c2c(S(=O)(=O)c3ccc(C)c(C)c3)cnc3ccc(F)cc23)CC1,"inconclusive: 9.2 µM [cytotoxic, partial curve]",–
CC(=O)c1ccc(Nc2cc(C)nc3ccc(C)cc23)cc1,"inconclusive: 16.4 µM [cytotoxic, single point]",–
Fc1ccccc1CSc1nnc(Cn2cnc3ccccc32)n1-c1ccccc1,"inconclusive: 29.1 µM [cytotoxic, single point]",–
Cc1ccc(N=C2NC(=O)c3cc([N+](=O)[O-])ccc32)cc1,"inconclusive: 16.4 µM [cytotoxic, single point]",–
O=c1c2cc3c(cc2[nH]c(=S)n1C1CCN(Cc2ccccc2)CC1)OCO3,–,inactive: 6%
COc1ccc(OC)c2c1C(=O)C(Cl)=C(Cl)C2=O,active: 5.17 µM,–
CCc1cccc(NC(=O)Cn2nc(-c3cc(C)ccc3C)ccc2=O)c1,–,inactive: 0%
COc1cccc(C(=O)N/N=C/C(Br)=C/c2ccccc2)c1,active: 3.66 µM,–
COc1ccc(-c2cc(C(=O)N3CCN(c4ccccc4OC)CC3)no2)cc1OC,–,inactive: -2.58%
NC(=O)[C@@H]1CC2(CC(c3cccc(NC(=O)[C@H]4CCC(=O)N4)c3)=NO2)CN1C(=O)c1ccc(Cl)cc1 (stereo partly specified),–,inconclusive: 37.3%
O=c1cc(CSc2n[nH]c(-c3ccccc3)n2)[nH]c2ccccc12,–,inconclusive: -48%
CCC(=O)c1ccc(OCC(=O)OCC(=O)Nc2sccc2C(N)=O)cc1,–,inactive: -20.8%
CC1CCCN(C(=O)COC(=O)Cc2c(F)cccc2Cl)C1 (stereo unspecified),–,inactive: 1.24%
Cc1ccccc1OCC(=O)Nc1ccc(N2CCN(C(=O)C(C)C)CC2)c(Cl)c1,"inconclusive: 23.1 µM [cytotoxic, single point]",–
CCSC1(SCC)N=C(N)C2(C#N)C(c3ccc(OC)c(OC)c3OC)C12C#N (stereo unspecified),"inconclusive: 29.1 µM [cytotoxic, single point]",–
O=C(CN1C(=O)COc2ccc(S(=O)(=O)N3CCOCC3)cc21)N1CCN(c2ccc(F)cc2)CC1,"inconclusive: 20.6 µM [cytotoxic, single point]",–
CC(=O)C(C)Oc1ccc(Cc2ncc(C(F)(F)F)cc2Cl)cc1 (stereo unspecified),"inconclusive: 23.1 µM [cytotoxic, partial curve, poor fit]",–
Cc1cccc(NC(=O)c2nc[nH]c2C(=O)N[C@@H](Cc2ccccc2)C(=O)OC(C)(C)C)c1,"inconclusive: 23.1 µM [cytotoxic, single point]",–
O=C(NC1CCCCC1)c1ccc2c(c1)N(Cc1ccc(Cl)cc1)C(=O)c1ccccc1S2(=O)=O,–,inactive: 11%

# Grouped by structure: those above with an aryl thioether with sulfur outside any ring
SMILES,Potency,"activity change, negative = cytotoxicity"
Fc1ccccc1CSc1nnc(Cn2cnc3ccccc32)n1-c1ccccc1,"inconclusive: 29.1 µM [cytotoxic, single point]",–
O=c1cc(CSc2n[nH]c(-c3ccccc3)n2)[nH]c2ccccc12,–,inconclusive: -48%

# Additional entries follow.

SMILES,Potency,"activity change, negative = cytotoxicity"
CCC(=O)N(C1=C(NC)C(=O)c2ccccc2C1=O)C(C)C,"inconclusive: 25.9 µM [cytotoxic, single point]",–
CCOc1ccc(-c2ccc(SCc3ccccn3)nn2)cc1,"inconclusive: 14.6 µM [cytotoxic, partial curve]",–
CCCN(c1ccc(OCC)cc1)S(=O)(=O)c1ccc2c(c1)NC(=O)CO2,active: 1.64 µM,–
CCOC(=O)CN1C(=O)/C(=C/c2ccccc2Br)Oc2ccccc21,"inconclusive: 23.1 µM [rising, single point]",–
CN(C)CCCNC1=CC(=O)OC12CCCCC2,–,inactive: 0%
CCOc1cc(/C=N/N=C(\N)c2nonc2N)cc(Br)c1OCc1cccc2ccccc12,"inconclusive: 23.1 µM [cytotoxic, partial curve, poor fit]",–
CN(CC(=O)Nc1ccc(Cl)c(C(F)(F)F)c1)C(=O)CCCNC(=O)c1ccc(Cl)cc1,–,inactive: -21.2%
CC(=O)N1CCN(c2ccccc2NC(=O)c2ccco2)CC1,"inconclusive: 4.11 µM [rising, full curve, poor fit]",–
CCCCOC(=O)c1cccc(NC(=O)c2cc3ccccc3o2)c1,–,inactive: -9.91%
Cc1ccccc1S(=O)(=O)Cc1ccc(C(=O)NCCCN2CCCC(C)C2)o1 (stereo unspecified),"inconclusive: 29.1 µM [rising, single point]",–
CCc1nn(CC(=O)N2CCN(Cc3ccc4c(c3)OCO4)CC2)c(=O)c2cc3occc3n12,active: 18.4 µM,–
CN(C)C=Nc1ncc2c3ccccc3n(Cc3ccccc3)c2c1C#N,–,inactive: 0%
Cc1cc(C(=O)N/N=C/c2cc(Br)ccc2OC(=O)c2ccccc2Cl)n[nH]1,"inconclusive: 4.11 µM [cytotoxic, full curve]",–
CCOc1ccc(NC(=O)C2CCN(c3nnnn3-c3ccccc3)CC2)cc1,active: 8.2 µM,–
COC(=O)c1sc2ccccc2c1N,–,inconclusive: 3.56%
CN(Cc1ccccc1)C(=O)c1ncn(C)c1C(=O)N(C)Cc1ccccc1,–,inactive: -6.56%
CCc1ccc(NC(=O)CSc2nc3n[nH]c(C)c3c(=N)n2-c2cccc(OC)c2)cc1,"inconclusive: 20.6 µM [cytotoxic, single point]",–
COC(=O)c1ccc(N2CCOCC2)c(NC(=O)c2ccco2)c1,"inconclusive: 8.2 µM [cytotoxic, partial curve, poor fit]",–
O=C(Nc1ccc2c(c1)OCCO2)C(c1ccnc2ccccc12)N1CCN(c2ccc(F)cc2)CC1 (stereo unspecified),"inconclusive: 29.1 µM [cytotoxic, single point]",–
Cc1ccc(N=C2NC(=O)CS2)cc1,"inconclusive: 23.1 µM [cytotoxic, single point]",–
Nc1nc(N)c(N=O)c(N)n1,–,inactive: 0.0458%
CCOC(=O)CCCc1ccc(/C(C)=N/NC(N)=S)cc1,active: 8.2 µM,–
O=C(Nc1ccc(Oc2ccccc2)nc1)C1CCN(Cc2ccco2)CC1,–,inactive: -6.99%
Cc1ccccc1OC(=O)CSc1nnc(-c2cccs2)o1,"inconclusive: 16.4 µM [rising, partial curve]",–

SMILES,Potency,"activity change, negative = cytotoxicity"
CCN(CC)C(=O)CN(C#N)c1nc(C)cc(C)n1,"inconclusive: 2.06 µM [rising, full curve]",–
CCc1ccc(Nc2cnn(-c3nc4ccccc4s3)c(=O)c2Cl)cc1,active: 13 µM,–
CC(C)(C)c1nc(CN2CCOCC2)cc(CN2CCOCC2)c1O,"inconclusive: 11.6 µM [cytotoxic, partial curve, poor fit]",–
CCN(C#N)c1nc(N(C)C)nc(N(C)C)n1,"inconclusive: 23.1 µM [cytotoxic, single point]",–
Cc1ccc(C)c(Cn2nc(-c3cc(C)ccc3C)ccc2=O)c1,"inconclusive: 16.4 µM [cytotoxic, single point]",–
CC1(C)CC(=O)C2=C(C1)NC(=O)NC2c1ccc(Cl)cc1 (stereo unspecified),"inconclusive: 16.4 µM [cytotoxic, single point]",–
Cc1ccc(S(=O)(=O)C/N=C(/NC(=S)N(c2ccccc2)c2ccccc2)c2ccccc2)cc1,"inconclusive: 16.4 µM [cytotoxic, single point]",–
O=C(CCc1ccccc1Cl)Nc1ccc(S(=O)(=O)N2CCOCC2)cc1,"inconclusive: 16.4 µM [cytotoxic, partial curve]",–
CC(=O)Nc1ccc(S(=O)(=O)NC(=O)C23CC4CC(CC(C4)C2)C3)cc1,"inconclusive: 23.1 µM [rising, single point]",–
CCOc1ccc(NC(=O)c2cc3ccccc3cc2OC)cc1,"inconclusive: 25.9 µM [cytotoxic, partial curve, poor fit]",–
O=C(CN1C(=O)COc2ccc(S(=O)(=O)NC3CCCC3)cc21)Nc1ccc(Cl)cc1,"inconclusive: 25.9 µM [rising, single point]",–
CCOC(=O)c1[nH]c(C)c(C(=O)NC(CC)Cc2ccccc2)c1C (stereo unspecified),"inconclusive: 29.1 µM [cytotoxic, single point]",–
COC(=O)CCC(=O)OC1(C)C(=O)C=C2C=C(C3CC3)N(CCCOC(C)C)C=C2C1=O (stereo unspecified),–,inconclusive: -7.88%
Cc1c(C(=O)N(C)C)sc2nc(-c3ccccn3)[nH]c(=O)c12,"inconclusive: 7.31 µM [cytotoxic, partial curve, poor fit]",–
CC(C)(C)NC(=O)c1cc(NC(=O)c2ccco2)cc(NC(=O)c2ccco2)c1,"inconclusive: 0.731 µM [cytotoxic, full curve, poor fit]",–
CCOc1ccc2nc(NC(=O)CN3CCN(C)CC3)sc2c1,"inconclusive: 29.1 µM [cytotoxic, single point]",–
COc1ccc(NC(=O)Nc2cc(C)ccn2)cc1,"inconclusive: 0.731 µM [rising, full curve]",–
CC(/C=N/NC(=O)c1ccncc1)=C\c1ccc(C(C)C)cc1,active: 10.3 µM,–
COc1ccc(C/C(C)=N/NC(=O)C2COc3ccccc3O2)cc1 (stereo unspecified),–,inactive: -11.3%
CNC(=O)CCC(=O)Nc1ccc(C(=O)OC)cc1,–,inactive: 8.84%
CC(=O)Nc1ccc(NC2=C(Cl)C(=O)c3ccccc3C2=O)cc1,"inconclusive: 29.1 µM [cytotoxic, single point]",–
O=C(NCCCO)c1c(O)c2cccc3c2n(c1=O)CCC3,active: 11.6 µM,–
O=C(NCc1ccccc1F)c1cccc(S(=O)(=O)N2CCCCC2)c1,active: 4.11 µM,–
